Measured values reported in the supplement of paper PMC6414424.
Structures can show the parent of a compound that is named as a salt. ± gives the standard deviation of the averaged measurements. The list shows a part of the results.

These compounds were tested on APPdp1-6 iPSC-derived neurons (assay: pThr231Tau/total Tau ratio Z-score vs DMSO vehicle wells; higher = more pThr231Tau relative to total Tau). Details: 5 µM; treatment time 5 days.

| SMILES | pThr231Tau/total Tau ratio Z-score |
| --- | --- |
| C[C@]12C=CC(=O)C=C1CC[C@@H]1[C@@H]2[C@@H](O)C[C@@]2(C)[C@H]1CC[C@]2(O)C(=O)COP(=O)(O)O | 0.898 ± 1.6 |
| C=C[C@H]1CN2CC[C@H]1C[C@@H]2[C@@H](O)c1ccnc2ccc(OC)cc12 [Prestw-280] | 0.0845 ± 1.1 |
| Cc1c(C(N)=O)cc([N+](=O)[O-])cc1[N+](=O)[O-] [DINITOLMIDE    Therap cat:  antiprotozoal] | 0.508 ± 0.12 |
| Cc1cccc(C)c1NC(=O)C1CCCCN1C (configuration not stated) [Prestw-1280] | 2.67 ± 1.9 |
| COc1ccc(C2C(=O)c3ccccc3C2=O)cc1 [ANISINDIONE    Therap cat: anticoagulant] | 0.998 ± 1.2 |
| Cc1ncc([N+](=O)[O-])n1CC(O)CCl (configuration not stated) [Prestw-164] | 0.189 ± 1.4 |
| CN1C(C(=O)Nc2ccccn2)=C(O)c2sccc2S1(=O)=O [Prestw-527] | 1.83 ± 0.053 |
| CC(C(=O)O)c1ccc(C(=O)c2ccccc2)s1 (configuration not stated) [Prestw-496] | 0.784 ± 0.62 |
| C=C1CCC(O)CC1=CC=C1CCCC2(C)C1CCC2C(C)C=CC(C)C(C)C (configuration not stated) [ERGOCALCIFEROL    Therap cat:  Antirachitic vitamin] | 0.087 ± 0.26 |
| CC(=O)N(CC(O)CN(C(C)=O)c1c(I)c(C(=O)NCC(O)CO)c(I)c(C(=O)NCC(O)CO)c1I)c1c(I)c(C(=O)NCC(O)CO)c(I)c(C(=O)NCC(O)CO)c1I (configuration not stated) [Prestw-848] | 0.0292 ± 2.5 |
| c1ccc(CN(CC2=NCCN2)c2ccccc2)cc1 [Prestw-258] | -0.796 ± 0.63 |
| CN(C)CC/C=C1/c2ccccc2COc2ccc(CC(=O)O)cc21 [Prestw-1307] | -0.5 ± 1.2 |
| C=CCSCC1Nc2cc(Cl)c(S(N)(=O)=O)cc2S(=O)(=O)N1 (configuration not stated) [Prestw-721] | -0.198 ± 0.15 |
| CCN(CC)CCOCCOC(=O)C(CC)(CC)c1ccccc1 | 1.67 ± 1.5 |
| CCCOc1ccc(C(=O)OCCN(CC)CC)cc1N [Prestw-959] | 0.742 ± 0.8 |
| Nc1nc2c(ncn2CCC(CO)CO)c(=O)[nH]1 [Prestw-1488] | -1.29 ± 1.6 |
| CC(N=C(NC#N)Nc1ccncc1)C(C)(C)C (configuration not stated) [Prestw-246] | 0.476 ± 1.8 |
| CC(=O)OCC(=O)[C@@]1(OC(C)=O)[C@@H](C)C[C@H]2[C@@H]3C[C@H](F)C4=CC(=O)C=C[C@]4(C)[C@@]3(F)[C@@H](O)C[C@@]21C [Prestw-619] | 1.24 ± 1.1 |
| CC(CN(C)C)C(C)(O)Cc1ccc(Cl)cc1 (configuration not stated) [Prestw-1380] | -0.636 ± 0.36 |
| C[C@]1(Cn2ccnn2)[C@H](C(=O)O)N2C(=O)C[C@H]2S1(=O)=O [Prestw-1349] | -0.311 ± 1.1 |
| CC[C@@H](CO)NCCN[C@@H](CC)CO [Prestw-28] | -0.479 ± 0.7 |
| C=CCOC(Cn1ccnc1)c1ccc(Cl)cc1Cl (configuration not stated) [Prestw-963] | -1.14 ± 0.2 |
| CC(=O)OCC(=O)[C@H]1CC[C@H]2[C@@H]3CCC4=CC(=O)CC[C@]4(C)[C@H]3CC[C@]12C | -0.568 ± 0.41 |
| CC(CN(C)C)CN1c2ccccc2Sc2ccccc21 (configuration not stated) [Prestw-842] | -1.73 ± 0.48 |
| CC1(C)[C@@H](OC(=O)CCC(=O)O)CC[C@]2(C)[C@H]3C(=O)C=C4[C@@H]5C[C@@](C)(C(=O)O)CC[C@]5(C)CC[C@@]4(C)[C@]3(C)CC[C@@H]12 [Prestw-837] | 0.229 ± 0.037 |
| C#C[C@]1(O)CC[C@H]2[C@@H]3CCC4=CC(=O)CC[C@@H]4[C@H]3CC[C@@]21CC [Prestw-773] | -0.846 ± 0.23 |

| SMILES | pThr231Tau/total Tau ratio Z-score |
| --- | --- |
| CO/N=C(\C(=O)N[C@@H]1C(=O)N2C(C(=O)OC(C)OC(C)=O)=C(COC(N)=O)CS[C@H]12)c1ccco1 (some centres not stated) [CEFUROXIME AXETIL    Therap cat: antibiotic] | -0.593 ± 0.48 |
| CCCSc1ccc2nc(NC(=O)OC)[nH]c2c1 [Prestw-247] | -4.24 ± 0.8 |
| Cc1cc(N)c2ccccc2[n+]1CCCCCCCCCC[n+]1c(C)cc(N)c2ccccc21 [Prestw-388] | -4.86 ± 1.6 |
| Nc1ccn([C@@H]2CS[C@H](CO)O2)c(=O)n1 [Prestw-1298] | -0.894 ± 0.59 |
| Nc1c2c(nc3ccccc13)CCCC2O (configuration not stated) [Prestw-448] | -0.0568 ± 0.6 |
| COc1ccccc1OCC(O)COC(N)=O (configuration not stated) [Prestw-184] | -0.359 ± 1.5 |
| NC1CCN(c2nc3c(cc2F)c(=O)c(C(=O)O)cn3-c2ccc(F)cc2F)C1 (configuration not stated) [Prestw-1464] | 1.23 ± 0.21 |
| COC(=O)Nc1nc2cc([S+]([O-])c3ccccc3)ccc2[nH]1 (configuration not stated) [Prestw-1459] | -0.438 ± 1.5 |
| c1ccc(CNc2ncnc3nc[nH]c23)cc1 [Prestw-189] | -0.269 ± 0.17 |
| CCCOc1ccccc1-c1nc2n[nH]nc2c(=O)[nH]1 [Prestw-335] | 0.38 ± 1.6 |
| CC(=O)Oc1cccc(C)c1 [meta-CRESYL ACETATE] | 0.356 ± 0.72 |
| FC(F)(F)COCC(F)(F)F [FLUROTHYL, central stimulant, convulsant] | 0.593 ± 2.8 |
| CN1Cc2c(N)cccc2C(c2ccccc2)C1 (configuration not stated) [Prestw-108] | -1.5 ± 0.97 |
| O=C1NC(=O)C(c2ccccc2)(c2ccccc2)N1 [Anticonvulsant; anti-epileptic] | 1.33 ± 2.3 |
| CC(C)(O)c1ccccc1CC[C@@H](SCC1(CC(=O)O)CC1)c1cccc(/C=C/c2ccc3ccc(Cl)cc3n2)c1 [Prestw-1189] | -0.866 ± 0.68 |
| CC(C)(O)c1ccccc1CC[C@@H](SCC1(CC(=O)O)CC1)c1cccc(/C=C/c2ccc3ccc(Cl)cc3n2)c1 [MONTELUKAST SODIUM, leucotriene antagonist, antiasthmatic] | 0.704 ± 1.5 |
| CCN[C@@H]1C[C@H](N)[C@@H](O[C@H]2OC(CN)=CC[C@H]2N)[C@H](O)[C@H]1O[C@H]1OC[C@](C)(O)[C@H](NC)[C@H]1O [NETILMICIN SULFATE, antibacterial] | 1.41 ± 0.28 |
| OCc1ccccc1O [SALICYL ALCOHOL    Therap cat:  Local anesthetic] | 0.915 ± 1.5 |
| O=C(c1ccccc1)c1ccc2n1CCC2C(=O)O (configuration not stated) [Prestw-929] | 0.71 ± 0.99 |
| CCOC(=O)[C@@](C)(N)Cc1ccc(O)c(O)c1 [Prestw-1038] | -1.11 ± 0.84 |
| COc1c(N2CCNC(C)C2)c(F)cc2c(=O)c(C(=O)O)cn(C3CC3)c12 (configuration not stated) [Prestw-1265] | 0.203 ± 0.29 |
| O=c1ccc2ccccc2o1 [Coumarin] | 1.98 ± 0.12 |
| CN(C)CCCN1c2ccccc2Sc2ccc(Cl)cc21 [Prestw-64] | -1.03 ± 0.51 |
| CCOc1ccccc1OC(c1ccccc1)C1CNCCO1 (configuration not stated) [Prestw-1328] | 0.00712 ± 0.2 |
| O=c1[nH]cnc2c1ncn2[C@@H]1O[C@H](CO)[C@@H](O)[C@H]1O [INOSINE    Therap cat: activates cellular functions] | -0.291 ± 1.7 |
| COc1cc([C@@H]2c3cc4c(cc3[C@@H](O[C@@H]3O[C@@H]5CO[C@@H](c6cccs6)O[C@H]5[C@H](O)[C@H]3O)[C@H]3COC(=O)[C@H]23)OCO4)cc(OC)c1O [TENIPOSIDE    Therap cat: antineoplastic] | -4.66 ± 0.79 |

Looked up one by one from above:

| SMILES | pThr231Tau/total Tau ratio Z-score |
| --- | --- |
| CCN[C@@H]1C[C@H](N)[C@@H](O[C@H]2OC(CN)=CC[C@H]2N)[C@H](O)[C@H]1O[C@H]1OC[C@](C)(O)[C@H](NC)[C@H]1O [NETILMICIN SULFATE, antibacterial] | 1.41 ± 0.28 |
| CCOC(=O)[C@@](C)(N)Cc1ccc(O)c(O)c1 [Prestw-1038] | -1.11 ± 0.84 |
| COc1ccccc1OCC(O)COC(N)=O (configuration not stated) [Prestw-184] | -0.359 ± 1.5 |
| OCc1ccccc1O [SALICYL ALCOHOL    Therap cat:  Local anesthetic] | 0.915 ± 1.5 |
| O=C(c1ccccc1)c1ccc2n1CCC2C(=O)O (configuration not stated) [Prestw-929] | 0.71 ± 0.99 |
| CN1Cc2c(N)cccc2C(c2ccccc2)C1 (configuration not stated) [Prestw-108] | -1.5 ± 0.97 |

(continued)

| SMILES | pThr231Tau/total Tau ratio Z-score |
| --- | --- |
| O=C1C(=O)c2ccccc2C(O)=C1C1CCC(c2ccc(Cl)cc2)CC1 (configuration not stated) [Prestw-534] | -0.945 ± 0.7 |
| C[C@@H]1C[C@H]2[C@@H]3C[C@H](F)C4=CC(=O)C=C[C@]4(C)[C@@]3(F)[C@@H](O)C[C@]2(C)[C@@]1(O)C(=O)COC(=O)C(C)(C)C | 1.22 ± 0.75 |
| CO[C@H]1C[C@H](O[C@H]2[C@H](C)[C@@H](O[C@@H]3O[C@H](C)C[C@H](N(C)C)[C@H]3O)[C@@H](C)C[C@@]3(CO3)C(=O)[C@H](C)[C@@H](O)[C@@H](C)[C@@H](C)OC(=O)[C@@H]2C)O[C@@H](C)[C@@H]1O | 0.51 ± 0.74 |
| Nc1ccc(S(=O)(=O)Nc2ccccn2)cc1 [Prestw-762] | -0.709 ± 0.6 |
| O=c1[nH]c(=O)c2ccccc2o1 | 0.311 ± 1.3 |
| Nc1ccn([C@@H]2O[C@H](CO)[C@@H](O)[C@@H]2O)c(=O)n1 [Prestw-1134] | 0.82 ± 0.51 |
| CC(C)(C)c1ccc(C(O)CCCN2CCC(C(O)(c3ccccc3)c3ccccc3)CC2)cc1 (configuration not stated) [Prestw-138] | -3.55 ± 0.24 |
| CC(COc1ccccc1)NC(C)C(O)c1ccc(O)cc1 (configuration not stated) [Prestw-68] | 1.33 ± 0.75 |
| CCCCN1CCCCC1C(=O)Nc1c(C)cccc1C (configuration not stated) [Prestw-305] | -0.852 ± 0.48 |
| CCOC(=O)NNc1nncc2ccccc12 [Prestw-71] | 0.531 ± 1.1 |
| CCN(CCO)CCCC(C)Nc1ccnc2cc(Cl)ccc12 (configuration not stated) [Prestw-1284] | 0.551 ± 2.3 |
| COc1ccc(CC2c3cc(OC)c(OC)cc3CC[N+]2(C)CCC(=O)OCCCCCOC(=O)CC[N+]2(C)CCc3cc(OC)c(OC)cc3C2Cc2ccc(OC)c(OC)c2)cc1OC (configuration not stated) [Prestw-5] | -0.677 ± 0.47 |
| CC(=O)[C@H]1CC[C@H]2[C@@H]3CC=C4C[C@@H](O)CC[C@]4(C)[C@H]3CC[C@]12C [Prestw-546] | 0.381 ± 0.58 |
| CN(C)c1ccc(C(=C2C=CC(=[N+](C)C)C=C2)c2ccc(N(C)C)cc2)cc1 | -3.62 ± 1.6 |
| CSc1ccc2c(c1)N(CCC1CCCCN1C)c1ccccc1S2 (configuration not stated) [Prestw-78] | -2 ± 0.26 |
| CC/C(=C(/CC)c1ccc(O)cc1)c1ccc(O)cc1 [Prestw-756] | -0.626 ± 0.015 |
| CC1=C(/C=C/C(C)=C/C=C/C(C)=C\C(=O)O)C(C)(C)CCC1 [Prestw-256] | 1.56 ± 1.2 |
| Cc1cc(-c2ccccc2)nnc1NCCN1CCOCC1 [Prestw-66] | 0.407 ± 0.91 |
| NC(N)=Nc1nc(CSCC/C(N)=N/S(N)(=O)=O)cs1 [Prestw-104] | 0.221 ± 0.43 |
| COc1cc(-c2ccc(=O)[nH]n2)ccc1OC(F)F [Prestw-977] | 0.105 ± 1.1 |
| CCCCC1(COC(=O)CCC(=O)O)C(=O)N(c2ccccc2)N(c2ccccc2)C1=O [Prestw-658] | 0.561 ± 0.019 |
| COc1cc(NC(C)CCCN)c2ncccc2c1 (configuration not stated) [Prestw-476] | -2.34 ± 0.55 |
| CCCCNc1c(C(=O)OCC)c(C)nc2c1cnn2CC [Prestw-976] | -0.229 ± 0.059 |
| C[C@]12CC[C@@H]3c4ccc(OS(=O)(=O)O)cc4CC[C@H]3[C@@H]1CCC2=O [ESTROPIPATE, estrogen] | -0.408 ± 0.42 |
| C[C@]12CC[C@@H]3c4ccc(OS(=O)(=O)O)cc4CC[C@H]3[C@@H]1CCC2=O [Prestw-688] | 0.229 ± 0.55 |
